Values from PubChem BioAssay AID1259308 (NCATS, 2017).
This is an unselected part of about 59,000 reagents tested. Of all reagents, about 1,510 (2.6%) got an active call. 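Calls use total luciferase alone and ignore viability, so some active siRNAs may act by altering cell number.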 The numbers tell different reagents against one gene apart. Not all columns of the deposit are shown.

Test: 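Knock-downs that increase output of a recombinant reporter protein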 (primary screen)
Cell system: human HEK293 embryonic kidney cells stably expressing firefly luciferase (HEK-CMV-Luc2-Hygro)
Reagent: single siRNA against human genes, 0.8 pmol siRNA per well
Duration: 72 h
Read-out: 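Reporter luminescence and viable-cell signal on separate replicate plates, given as percent of non-targeting control and median/MAD z-scores, plus per-cell luciferase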
Scale: total luciferase, z-score: higher = more reporter protein produced
Rule for the call: 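An siRNA counts as active if its total luciferase robust z-score exceeds 3; genes with two or more such siRNAs out of three were retested with fresh siRNAs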
Meaning of the calls: active = raised luciferase; inactive = no rise

gene,siRNA no.,"total luciferase, z-score",Outcome
"CARD17P (caspase recruitment domain family member 17, pseudogene)",1,-0.567,inactive
"CARD17P (caspase recruitment domain family member 17, pseudogene)",2,-1.24,inactive
"CARD17P (caspase recruitment domain family member 17, pseudogene)",3,-0.788,inactive
HS3ST4 (heparan sulfate-glucosamine 3-sulfotransferase 4),1,1.18,inactive
HS3ST4 (heparan sulfate-glucosamine 3-sulfotransferase 4),2,-0.432,inactive
HS3ST4 (heparan sulfate-glucosamine 3-sulfotransferase 4),3,-0.556,inactive
VDR (vitamin D receptor),1,0.838,inactive
VDR (vitamin D receptor),2,0.369,inactive
VDR (vitamin D receptor),3,0.611,inactive
DLEU7 (deleted in lymphocytic leukemia 7),1,2.64,inactive
DLEU7 (deleted in lymphocytic leukemia 7),2,-0.754,inactive
DLEU7 (deleted in lymphocytic leukemia 7),3,-0.497,inactive
PELI2 (pellino E3 ubiquitin protein ligase family member 2),1,-1.72,inactive
PELI2 (pellino E3 ubiquitin protein ligase family member 2),2,0.457,inactive
PELI2 (pellino E3 ubiquitin protein ligase family member 2),3,0.0649,inactive
CHST7 (carbohydrate sulfotransferase 7),1,-1.14,inactive
CHST7 (carbohydrate sulfotransferase 7),2,-0.252,inactive
CHST7 (carbohydrate sulfotransferase 7),3,-0.379,inactive
NCOA6 (nuclear receptor coactivator 6),1,0.142,inactive
NCOA6 (nuclear receptor coactivator 6),2,-1.09,inactive
NCOA6 (nuclear receptor coactivator 6),3,-0.268,inactive
MYO9A (myosin IXA),1,-1.11,inactive
MYO9A (myosin IXA),2,-1.62,inactive
MYO9A (myosin IXA),3,-0.98,inactive
SH3D19 (SH3 domain containing 19),1,0.132,inactive
SH3D19 (SH3 domain containing 19),2,-1.64,inactive
SH3D19 (SH3 domain containing 19),3,-0.252,inactive
LMTK2 (lemur tail kinase 2),1,0.993,inactive
LMTK2 (lemur tail kinase 2),2,0.342,inactive
LMTK2 (lemur tail kinase 2),3,0.916,inactive
TAF1L (TATA-box binding protein associated factor 1 like),1,0.485,inactive
TAF1L (TATA-box binding protein associated factor 1 like),2,0.18,inactive
TAF1L (TATA-box binding protein associated factor 1 like),3,-0.657,inactive
PRDM14 (PR/SET domain 14),1,1.42,inactive
PRDM14 (PR/SET domain 14),2,0.568,inactive
PRDM14 (PR/SET domain 14),3,-1.43,inactive
ZNF441 (zinc finger protein 441),1,2.83,inactive
ZNF441 (zinc finger protein 441),2,0.0793,inactive
ZNF441 (zinc finger protein 441),3,-0.101,inactive

A few values from the list.
For “total luciferase, z-score”, CARD17P (caspase recruitment domain family member 17, pseudogene) #1 is entered as -0.567
SH3D19 (SH3 domain containing 19) #1, Outcome = inactive
CARD17P (caspase recruitment domain family member 17, pseudogene) #3, total luciferase, z-score → -0.788
Result of HS3ST4 (heparan sulfate-glucosamine 3-sulfotransferase 4) #3 under “total luciferase, z-score”: -0.556
MYO9A (myosin IXA) #2, Outcome = inactive
Result for NCOA6 (nuclear receptor coactivator 6) #1 in “total luciferase, z-score”: 0.142
